The values that follow come from PMC9726905.

These are yes or no findings as the source states them, for the method shown. Binding seen in cells or lysates may run through a third protein. Binding calls can cover weak binding; strength is not graded here. Sequences can lack the tags named with a protein.

The target in this assay is T1, V5-SBP-DAP5 MIF4G (DAP5 MIF4G domain alone) (human) (UniProt P78344).
T1 sequence: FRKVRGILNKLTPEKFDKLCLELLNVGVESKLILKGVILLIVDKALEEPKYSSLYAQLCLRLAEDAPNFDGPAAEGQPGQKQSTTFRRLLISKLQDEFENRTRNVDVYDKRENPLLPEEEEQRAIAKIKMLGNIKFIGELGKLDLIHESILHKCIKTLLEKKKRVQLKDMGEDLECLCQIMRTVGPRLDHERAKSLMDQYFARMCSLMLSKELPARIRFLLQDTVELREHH
As to the kind of experiment: pull-down; streptavidin pulldown of V5-SBP-tagged proteins from transfected HEK293T lysates (NET buffer), in the presence of RNase A; immunoblotting. (In general: A western blot detects proteins with antibodies after separation by electrophoresis.)

eIF4A (human (endogenous in HEK293T)): the binding result was “binds”.
